Results published in PMC4557304.

Chains of the proteins cited; added tags and fusions are not shown. Residues count along the entry.
UniProt P54098, 26-1239 G303R: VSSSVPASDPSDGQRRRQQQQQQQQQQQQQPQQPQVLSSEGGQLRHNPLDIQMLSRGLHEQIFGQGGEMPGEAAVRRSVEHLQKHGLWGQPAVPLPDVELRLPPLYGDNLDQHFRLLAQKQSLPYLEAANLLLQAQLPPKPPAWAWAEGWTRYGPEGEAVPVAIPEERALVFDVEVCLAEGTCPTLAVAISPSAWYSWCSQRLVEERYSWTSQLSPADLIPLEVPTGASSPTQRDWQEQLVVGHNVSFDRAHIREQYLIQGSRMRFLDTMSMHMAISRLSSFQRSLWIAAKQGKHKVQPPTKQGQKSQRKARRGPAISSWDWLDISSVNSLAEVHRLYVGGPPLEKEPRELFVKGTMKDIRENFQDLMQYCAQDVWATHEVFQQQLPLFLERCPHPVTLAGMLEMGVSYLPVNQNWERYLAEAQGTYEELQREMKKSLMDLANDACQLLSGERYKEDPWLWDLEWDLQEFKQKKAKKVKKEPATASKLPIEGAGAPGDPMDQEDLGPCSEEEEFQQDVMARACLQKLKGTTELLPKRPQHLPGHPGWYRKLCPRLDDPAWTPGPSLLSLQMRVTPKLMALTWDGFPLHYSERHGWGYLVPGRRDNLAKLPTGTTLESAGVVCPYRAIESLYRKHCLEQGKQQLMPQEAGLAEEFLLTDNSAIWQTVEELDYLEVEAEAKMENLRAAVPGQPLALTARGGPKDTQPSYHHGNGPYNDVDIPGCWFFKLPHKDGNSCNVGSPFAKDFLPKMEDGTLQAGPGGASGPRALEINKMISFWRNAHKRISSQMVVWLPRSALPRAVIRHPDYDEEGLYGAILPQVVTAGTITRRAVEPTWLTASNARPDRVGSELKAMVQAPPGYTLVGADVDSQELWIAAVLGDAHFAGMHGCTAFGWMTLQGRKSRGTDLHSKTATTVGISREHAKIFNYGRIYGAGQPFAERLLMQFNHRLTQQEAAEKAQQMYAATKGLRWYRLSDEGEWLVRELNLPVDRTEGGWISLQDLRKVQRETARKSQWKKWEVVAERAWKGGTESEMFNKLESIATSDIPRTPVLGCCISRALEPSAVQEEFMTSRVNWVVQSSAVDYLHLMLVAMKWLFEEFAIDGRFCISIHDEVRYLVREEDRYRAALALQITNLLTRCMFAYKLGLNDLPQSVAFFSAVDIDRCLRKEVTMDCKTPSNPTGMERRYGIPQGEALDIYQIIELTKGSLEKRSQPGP
UniProt P54098, 26-1239 S305R: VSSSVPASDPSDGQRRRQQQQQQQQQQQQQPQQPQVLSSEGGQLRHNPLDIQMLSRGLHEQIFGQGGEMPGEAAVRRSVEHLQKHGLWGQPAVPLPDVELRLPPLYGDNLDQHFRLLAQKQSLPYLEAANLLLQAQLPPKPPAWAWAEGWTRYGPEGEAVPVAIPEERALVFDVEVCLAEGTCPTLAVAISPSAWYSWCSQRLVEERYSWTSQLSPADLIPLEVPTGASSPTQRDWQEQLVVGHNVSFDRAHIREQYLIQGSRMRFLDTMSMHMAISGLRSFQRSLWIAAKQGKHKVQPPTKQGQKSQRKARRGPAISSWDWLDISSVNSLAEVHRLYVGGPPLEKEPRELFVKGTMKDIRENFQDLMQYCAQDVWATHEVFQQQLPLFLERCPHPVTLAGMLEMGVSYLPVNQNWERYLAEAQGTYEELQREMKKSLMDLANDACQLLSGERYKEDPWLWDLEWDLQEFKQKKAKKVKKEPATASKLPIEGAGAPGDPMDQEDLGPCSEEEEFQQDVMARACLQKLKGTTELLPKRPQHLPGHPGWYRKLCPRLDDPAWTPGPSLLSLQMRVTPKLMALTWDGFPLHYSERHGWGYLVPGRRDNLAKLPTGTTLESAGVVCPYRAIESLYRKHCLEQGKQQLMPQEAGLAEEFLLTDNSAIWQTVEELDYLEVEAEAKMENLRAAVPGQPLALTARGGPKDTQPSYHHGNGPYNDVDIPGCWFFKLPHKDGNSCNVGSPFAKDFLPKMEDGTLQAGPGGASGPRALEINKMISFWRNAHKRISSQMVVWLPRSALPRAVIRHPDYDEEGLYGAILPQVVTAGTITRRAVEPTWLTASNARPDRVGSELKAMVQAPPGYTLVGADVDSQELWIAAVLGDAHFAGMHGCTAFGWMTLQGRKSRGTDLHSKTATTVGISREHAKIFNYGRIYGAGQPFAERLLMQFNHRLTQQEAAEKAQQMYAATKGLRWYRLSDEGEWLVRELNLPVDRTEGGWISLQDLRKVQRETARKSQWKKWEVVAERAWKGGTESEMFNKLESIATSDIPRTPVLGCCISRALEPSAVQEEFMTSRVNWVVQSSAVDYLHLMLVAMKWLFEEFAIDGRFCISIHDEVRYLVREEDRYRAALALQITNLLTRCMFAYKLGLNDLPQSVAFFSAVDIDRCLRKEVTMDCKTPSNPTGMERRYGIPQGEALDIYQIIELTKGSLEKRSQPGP
UniProt P54098, 26-1239 R275Q: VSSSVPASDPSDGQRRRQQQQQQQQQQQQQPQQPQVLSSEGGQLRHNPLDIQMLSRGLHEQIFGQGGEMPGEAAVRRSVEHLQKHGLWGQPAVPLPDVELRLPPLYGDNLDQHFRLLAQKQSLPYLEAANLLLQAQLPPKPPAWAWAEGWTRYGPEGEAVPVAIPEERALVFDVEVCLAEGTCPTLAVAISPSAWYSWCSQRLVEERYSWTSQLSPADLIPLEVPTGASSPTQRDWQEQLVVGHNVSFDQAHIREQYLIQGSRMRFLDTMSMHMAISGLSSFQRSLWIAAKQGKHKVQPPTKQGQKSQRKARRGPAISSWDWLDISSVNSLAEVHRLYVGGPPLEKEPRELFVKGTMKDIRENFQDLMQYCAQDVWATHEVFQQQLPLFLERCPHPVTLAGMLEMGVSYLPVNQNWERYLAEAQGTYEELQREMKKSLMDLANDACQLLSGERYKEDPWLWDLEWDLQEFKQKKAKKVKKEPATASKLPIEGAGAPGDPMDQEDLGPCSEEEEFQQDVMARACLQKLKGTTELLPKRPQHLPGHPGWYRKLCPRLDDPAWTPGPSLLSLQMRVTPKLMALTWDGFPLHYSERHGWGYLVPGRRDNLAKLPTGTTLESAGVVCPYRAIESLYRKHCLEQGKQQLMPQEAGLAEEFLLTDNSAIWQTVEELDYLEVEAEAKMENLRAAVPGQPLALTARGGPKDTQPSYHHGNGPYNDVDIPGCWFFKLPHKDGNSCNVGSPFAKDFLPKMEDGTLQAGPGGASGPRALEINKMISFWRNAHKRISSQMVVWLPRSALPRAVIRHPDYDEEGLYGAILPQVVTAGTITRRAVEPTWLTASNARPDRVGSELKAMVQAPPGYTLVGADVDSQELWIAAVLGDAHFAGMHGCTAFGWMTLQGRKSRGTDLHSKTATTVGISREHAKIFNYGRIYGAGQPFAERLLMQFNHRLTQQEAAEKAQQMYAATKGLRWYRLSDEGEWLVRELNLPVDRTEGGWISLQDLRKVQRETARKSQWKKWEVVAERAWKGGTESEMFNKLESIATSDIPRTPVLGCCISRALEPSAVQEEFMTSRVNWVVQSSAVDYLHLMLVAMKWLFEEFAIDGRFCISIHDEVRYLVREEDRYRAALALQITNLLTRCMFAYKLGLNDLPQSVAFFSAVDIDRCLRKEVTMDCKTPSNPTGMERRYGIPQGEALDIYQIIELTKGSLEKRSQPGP
UniProt P54098, 26-1239 L304R: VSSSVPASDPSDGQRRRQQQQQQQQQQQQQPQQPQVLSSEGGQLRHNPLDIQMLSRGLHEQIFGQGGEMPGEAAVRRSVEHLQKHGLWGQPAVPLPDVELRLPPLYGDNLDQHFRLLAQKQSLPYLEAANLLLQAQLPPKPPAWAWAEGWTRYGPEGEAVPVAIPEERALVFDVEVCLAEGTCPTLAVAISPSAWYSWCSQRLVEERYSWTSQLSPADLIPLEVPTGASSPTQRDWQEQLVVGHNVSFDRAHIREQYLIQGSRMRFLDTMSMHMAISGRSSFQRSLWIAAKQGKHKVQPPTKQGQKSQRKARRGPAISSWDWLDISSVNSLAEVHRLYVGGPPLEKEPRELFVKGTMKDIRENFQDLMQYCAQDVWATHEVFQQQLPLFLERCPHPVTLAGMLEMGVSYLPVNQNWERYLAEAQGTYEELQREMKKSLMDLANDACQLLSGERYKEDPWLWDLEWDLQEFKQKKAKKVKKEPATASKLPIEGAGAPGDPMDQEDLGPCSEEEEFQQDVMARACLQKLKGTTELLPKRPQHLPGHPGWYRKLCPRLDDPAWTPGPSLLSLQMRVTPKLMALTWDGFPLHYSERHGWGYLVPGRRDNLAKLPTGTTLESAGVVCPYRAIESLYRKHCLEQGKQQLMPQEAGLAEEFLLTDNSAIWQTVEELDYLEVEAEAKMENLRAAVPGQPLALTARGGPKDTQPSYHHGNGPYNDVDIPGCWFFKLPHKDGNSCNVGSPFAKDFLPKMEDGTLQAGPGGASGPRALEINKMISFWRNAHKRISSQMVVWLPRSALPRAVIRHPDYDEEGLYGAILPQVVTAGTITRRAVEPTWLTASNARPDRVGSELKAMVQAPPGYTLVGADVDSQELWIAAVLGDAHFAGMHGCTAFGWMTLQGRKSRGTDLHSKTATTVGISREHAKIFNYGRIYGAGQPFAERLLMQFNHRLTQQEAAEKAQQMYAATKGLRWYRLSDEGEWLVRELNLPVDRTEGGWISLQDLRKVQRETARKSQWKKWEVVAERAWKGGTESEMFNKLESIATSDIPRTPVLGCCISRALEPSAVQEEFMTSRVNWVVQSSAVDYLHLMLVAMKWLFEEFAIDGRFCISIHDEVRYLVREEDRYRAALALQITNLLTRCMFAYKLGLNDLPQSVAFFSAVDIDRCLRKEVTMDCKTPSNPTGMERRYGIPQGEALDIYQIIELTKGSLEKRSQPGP
UniProt P54098, 26-1239: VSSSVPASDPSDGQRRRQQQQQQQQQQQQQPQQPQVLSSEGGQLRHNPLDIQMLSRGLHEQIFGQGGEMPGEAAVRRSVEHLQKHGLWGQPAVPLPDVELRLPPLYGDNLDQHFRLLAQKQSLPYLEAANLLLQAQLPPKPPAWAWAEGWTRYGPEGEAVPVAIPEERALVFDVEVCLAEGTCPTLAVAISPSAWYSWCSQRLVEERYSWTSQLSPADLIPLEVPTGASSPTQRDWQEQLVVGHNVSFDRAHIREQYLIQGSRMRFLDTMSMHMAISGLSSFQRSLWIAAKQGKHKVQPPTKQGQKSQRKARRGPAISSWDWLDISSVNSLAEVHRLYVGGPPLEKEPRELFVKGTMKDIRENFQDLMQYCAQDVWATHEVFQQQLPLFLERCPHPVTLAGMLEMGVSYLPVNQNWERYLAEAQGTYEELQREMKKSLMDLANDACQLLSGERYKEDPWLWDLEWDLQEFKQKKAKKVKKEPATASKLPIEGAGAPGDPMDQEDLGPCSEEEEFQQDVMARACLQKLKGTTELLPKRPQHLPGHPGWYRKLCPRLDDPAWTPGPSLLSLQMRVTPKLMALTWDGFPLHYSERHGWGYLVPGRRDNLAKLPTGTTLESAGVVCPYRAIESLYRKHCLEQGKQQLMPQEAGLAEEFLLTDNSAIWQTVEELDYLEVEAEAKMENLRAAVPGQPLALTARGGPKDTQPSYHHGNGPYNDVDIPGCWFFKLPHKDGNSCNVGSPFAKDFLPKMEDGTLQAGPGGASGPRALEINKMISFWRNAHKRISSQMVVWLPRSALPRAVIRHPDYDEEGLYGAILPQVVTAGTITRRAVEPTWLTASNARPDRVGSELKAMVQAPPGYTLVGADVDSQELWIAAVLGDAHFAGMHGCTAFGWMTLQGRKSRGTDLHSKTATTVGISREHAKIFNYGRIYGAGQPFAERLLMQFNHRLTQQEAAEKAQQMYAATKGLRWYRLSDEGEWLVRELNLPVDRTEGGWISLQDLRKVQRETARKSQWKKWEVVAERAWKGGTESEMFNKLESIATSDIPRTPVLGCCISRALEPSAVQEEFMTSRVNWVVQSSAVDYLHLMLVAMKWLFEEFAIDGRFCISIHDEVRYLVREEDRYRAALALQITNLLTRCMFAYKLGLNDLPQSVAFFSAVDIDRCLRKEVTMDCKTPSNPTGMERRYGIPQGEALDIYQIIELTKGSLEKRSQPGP

Legend:
Assay in all cases: EMSA
POLγA G303R = POLγA G303R (UniProt P54098); details: no POLγB, 10 mM Mg2+, 3 mM dCTP, 0.3 mM ddGTP, EMSA: 15 µl, 10 fmol DNA, 450 fmol POLγA, 1.8 pmol POLγB where indicated, 20 mM Tris-HCl pH 7.5, 1 mM DTT, 0.1 mg/ml BSA, 10 mM MgCl2, 10% glycerol, recombinant protein, protein details: C-terminal 6xHis, label: 5'-32P on S6
POLγA S305R = POLγA S305R (UniProt P54098); details: no POLγB, 10 mM Mg2+, 3 mM dCTP, 0.3 mM ddGTP, EMSA: 15 µl, 10 fmol DNA, 450 fmol POLγA, 1.8 pmol POLγB where indicated, 20 mM Tris-HCl pH 7.5, 1 mM DTT, 0.1 mg/ml BSA, 10 mM MgCl2, 10% glycerol, recombinant protein, protein details: C-terminal 6xHis, label: 5'-32P on S6
POLγA R275Q = POLγA R275Q (UniProt P54098); details: no POLγB, 10 mM Mg2+, 3 mM dCTP, 0.3 mM ddGTP, EMSA: 15 µl, 10 fmol DNA, 450 fmol POLγA, 1.8 pmol POLγB where indicated, 20 mM Tris-HCl pH 7.5, 1 mM DTT, 0.1 mg/ml BSA, 10 mM MgCl2, 10% glycerol, recombinant protein, protein details: C-terminal 6xHis, label: 5'-32P on S6
POLγA L304R = POLγA L304R (UniProt P54098); details: no POLγB, 10 mM Mg2+, 3 mM dCTP, 0.3 mM ddGTP, EMSA: 15 µl, 10 fmol DNA, 450 fmol POLγA, 1.8 pmol POLγB where indicated, 20 mM Tris-HCl pH 7.5, 1 mM DTT, 0.1 mg/ml BSA, 10 mM MgCl2, 10% glycerol, recombinant protein, protein details: C-terminal 6xHis, label: 5'-32P on S6
POLγA WT + POLγB = details: with POLγB, 10 mM Mg2+, 3 mM dCTP, 0.3 mM ddGTP, EMSA: 15 µl, 10 fmol DNA, 450 fmol POLγA, 1.8 pmol POLγB where indicated, 20 mM Tris-HCl pH 7.5, 1 mM DTT, 0.1 mg/ml BSA, 10 mM MgCl2, 10% glycerol, recombinant protein, protein details: C-terminal 6xHis,C-terminal 6xHis, label: 5'-32P on S6
POLγA WT = POLγA WT (UniProt P54098); details: no POLγB, 10 mM Mg2+, 3 mM dCTP, 0.3 mM ddGTP, EMSA: 15 µl, 10 fmol DNA, 450 fmol POLγA, 1.8 pmol POLγB where indicated, 20 mM Tris-HCl pH 7.5, 1 mM DTT, 0.1 mg/ml BSA, 10 mM MgCl2, 10% glycerol, recombinant protein, protein details: C-terminal 6xHis, label: 5'-32P on S6

Sequence: CGGTCGAGTCTAGAGGAGCC / GACTACGTCTATCCGGGCTCCTCTAGACTCGACCG [primed DNA template (20/35-mer)]
- binding result (POLγA G303R): binds more weakly
- binding result (POLγA S305R): binds more weakly
- binding result (POLγA R275Q): binds more weakly
- binding result (POLγA L304R): binds more weakly
- binding result (POLγA WT + POLγB): binds
- binding result (POLγA WT): binds

Construct, isoform or probe ends are uncertain for at least one entry. For part of these data: A weaker result is weaker than the reference pair of the same experiment. For part of these data: At least one verdict rests on a figure or table, not on a statement of the authors.
